Laboratory results: patent publication US20110189095A1, “CRKL TARGETING PEPTIDES” (The Board of Regents, of the University of Texas System, priority 2008, published 2011)
These are yes or no findings as the source states them, for the method shown. Some entries that bind do so weakly or less than the wild type. For part of these data: Where a sequence is shown, tags or fusion partners need not be part of it.

The chains behind the UniProt entries cited, without tags or fusion partners. Where a name states a change or a piece, a line headed by the entry shows the natural chain unless it says otherwise.
UniProt P46109: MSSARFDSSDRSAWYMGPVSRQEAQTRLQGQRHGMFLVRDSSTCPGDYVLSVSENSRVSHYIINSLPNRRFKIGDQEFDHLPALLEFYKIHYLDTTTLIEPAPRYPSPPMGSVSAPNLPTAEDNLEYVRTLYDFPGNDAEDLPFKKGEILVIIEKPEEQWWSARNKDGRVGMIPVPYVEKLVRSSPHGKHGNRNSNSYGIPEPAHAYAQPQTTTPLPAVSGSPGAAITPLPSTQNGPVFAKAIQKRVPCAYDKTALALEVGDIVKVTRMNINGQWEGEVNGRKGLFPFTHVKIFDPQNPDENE

How the values were obtained:
[1] = target: CRKL of DU145 cells (cell extract, membrane fraction, cell surface or serum-free condition medium) (human) (UniProt P46109); experiment: gst-resin affinity column, DU145 serum-free condition medium, Western blot
[2] = target: recombinant His-tag rCRKL-SH3 (N) domain (Homo sapiens (Human)) (UniProt P46109); experiment: ELISA, His-tag protein on coated synthetic peptide (FIG. 3A)
[3] = target: recombinant His-tag rCRKL-SH3 (C) domain (Homo sapiens (Human)) (UniProt P46109); experiment: as above

binding [1] | binding [2] | binding [3] | Binder
binds |  |  | YRCTLNSPFFWEDMTHECHA (peptide, not shown: a dimerising Fc or GST) [recombinant gst-tag fusion protein expressing the tumor-homing peptide]
 | binds | binds | YRCTLNSPFFWEDMTHECHA (cyclic Cys-Cys disulfide bridge (peptides were synthesized and cyclized)) [synthetic tumor-homing peptide … (SEQ ID NO:1)]
